These are yes or no findings as the source states them, for the method shown. For some of these results: In cells and extracts the contact can be indirect. Some entries that bind do so weakly or less than the wild type.

Amino acid sequences for entries named in this document (tags omitted). A change or cut given only in a name is not applied to a line headed by its entry. Residues count along the entry.
UniProt O60264: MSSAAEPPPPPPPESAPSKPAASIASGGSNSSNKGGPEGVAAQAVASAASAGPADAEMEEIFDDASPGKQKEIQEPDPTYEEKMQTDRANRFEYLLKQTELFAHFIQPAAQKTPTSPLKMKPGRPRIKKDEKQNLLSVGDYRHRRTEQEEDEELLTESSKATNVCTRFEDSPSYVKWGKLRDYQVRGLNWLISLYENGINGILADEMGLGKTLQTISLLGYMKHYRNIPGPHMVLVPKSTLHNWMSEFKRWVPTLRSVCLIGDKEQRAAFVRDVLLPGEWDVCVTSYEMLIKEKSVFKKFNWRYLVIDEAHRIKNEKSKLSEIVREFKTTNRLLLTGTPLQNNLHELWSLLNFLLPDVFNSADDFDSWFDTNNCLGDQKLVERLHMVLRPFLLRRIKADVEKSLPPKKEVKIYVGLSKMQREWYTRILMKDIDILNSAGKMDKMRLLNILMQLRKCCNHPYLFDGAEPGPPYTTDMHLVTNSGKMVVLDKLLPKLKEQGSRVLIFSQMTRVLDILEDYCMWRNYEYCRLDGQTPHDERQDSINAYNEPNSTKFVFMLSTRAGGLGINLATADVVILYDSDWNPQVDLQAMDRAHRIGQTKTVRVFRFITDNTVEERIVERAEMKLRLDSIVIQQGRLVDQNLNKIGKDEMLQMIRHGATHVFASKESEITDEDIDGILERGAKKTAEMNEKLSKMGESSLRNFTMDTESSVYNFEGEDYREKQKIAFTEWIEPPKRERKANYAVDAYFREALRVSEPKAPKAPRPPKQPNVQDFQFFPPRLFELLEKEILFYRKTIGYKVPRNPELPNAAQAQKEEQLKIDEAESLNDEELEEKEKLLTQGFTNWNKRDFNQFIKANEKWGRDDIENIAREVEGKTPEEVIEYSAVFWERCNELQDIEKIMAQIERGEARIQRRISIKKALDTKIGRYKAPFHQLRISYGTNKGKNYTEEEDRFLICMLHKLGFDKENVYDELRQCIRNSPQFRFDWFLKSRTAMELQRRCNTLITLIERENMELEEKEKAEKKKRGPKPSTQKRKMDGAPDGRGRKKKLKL
UniProt Q04206: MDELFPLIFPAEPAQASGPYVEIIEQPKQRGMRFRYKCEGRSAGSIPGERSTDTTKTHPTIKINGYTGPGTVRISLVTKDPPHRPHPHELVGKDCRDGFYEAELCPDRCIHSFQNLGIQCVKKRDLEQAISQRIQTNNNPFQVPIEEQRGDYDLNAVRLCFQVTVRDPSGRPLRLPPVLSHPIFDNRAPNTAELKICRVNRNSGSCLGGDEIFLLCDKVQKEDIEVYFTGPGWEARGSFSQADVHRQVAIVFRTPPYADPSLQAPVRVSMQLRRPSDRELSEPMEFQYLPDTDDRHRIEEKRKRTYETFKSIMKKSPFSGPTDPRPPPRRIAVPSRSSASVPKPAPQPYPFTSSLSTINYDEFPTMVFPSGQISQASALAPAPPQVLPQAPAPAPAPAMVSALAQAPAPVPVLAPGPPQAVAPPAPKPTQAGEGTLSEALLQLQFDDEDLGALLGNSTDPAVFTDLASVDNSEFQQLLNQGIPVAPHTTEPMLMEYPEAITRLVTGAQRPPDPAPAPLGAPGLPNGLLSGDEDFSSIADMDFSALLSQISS
UniProt O75925: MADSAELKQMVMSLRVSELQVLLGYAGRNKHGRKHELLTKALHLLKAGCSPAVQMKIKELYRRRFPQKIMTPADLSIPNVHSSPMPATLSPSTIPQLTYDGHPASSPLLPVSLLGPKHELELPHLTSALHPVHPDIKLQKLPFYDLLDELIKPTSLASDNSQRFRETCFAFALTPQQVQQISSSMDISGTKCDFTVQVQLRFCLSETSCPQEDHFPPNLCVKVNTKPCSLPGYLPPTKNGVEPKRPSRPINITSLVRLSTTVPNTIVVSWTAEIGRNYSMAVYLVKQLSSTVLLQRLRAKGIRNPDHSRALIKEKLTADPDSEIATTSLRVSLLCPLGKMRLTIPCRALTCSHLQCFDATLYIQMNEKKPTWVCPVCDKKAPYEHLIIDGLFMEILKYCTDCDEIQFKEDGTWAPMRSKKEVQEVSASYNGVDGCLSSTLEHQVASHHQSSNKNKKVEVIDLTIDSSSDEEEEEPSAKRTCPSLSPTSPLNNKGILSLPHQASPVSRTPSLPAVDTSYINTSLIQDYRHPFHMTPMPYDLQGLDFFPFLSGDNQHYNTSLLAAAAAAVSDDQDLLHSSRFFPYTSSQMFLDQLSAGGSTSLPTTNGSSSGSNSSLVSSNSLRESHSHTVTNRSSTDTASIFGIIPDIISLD
UniProt Q8N6T7: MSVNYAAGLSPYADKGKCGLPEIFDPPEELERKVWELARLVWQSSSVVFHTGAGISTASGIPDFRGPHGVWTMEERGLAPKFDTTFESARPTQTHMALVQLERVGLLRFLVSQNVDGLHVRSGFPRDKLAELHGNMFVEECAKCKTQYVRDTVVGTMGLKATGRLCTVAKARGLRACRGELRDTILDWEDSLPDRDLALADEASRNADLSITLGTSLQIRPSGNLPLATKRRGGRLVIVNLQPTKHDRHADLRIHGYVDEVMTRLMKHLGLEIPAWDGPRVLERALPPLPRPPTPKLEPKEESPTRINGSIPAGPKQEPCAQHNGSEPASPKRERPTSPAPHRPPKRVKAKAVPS
UniProt Q13569, residues 101-410: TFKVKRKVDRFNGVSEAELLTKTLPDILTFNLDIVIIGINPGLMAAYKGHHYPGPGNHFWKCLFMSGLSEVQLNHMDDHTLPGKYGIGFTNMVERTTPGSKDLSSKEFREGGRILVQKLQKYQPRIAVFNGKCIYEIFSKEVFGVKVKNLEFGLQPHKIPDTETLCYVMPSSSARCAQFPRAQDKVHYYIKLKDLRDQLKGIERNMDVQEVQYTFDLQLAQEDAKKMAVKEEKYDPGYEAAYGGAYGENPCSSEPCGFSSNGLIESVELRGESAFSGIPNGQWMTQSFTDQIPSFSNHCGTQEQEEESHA

In assay [1] the target is SMARCA5 (human (endogenous in HEK293)) (UniProt O60264). Nature of the assay: co-IP; extract of HEK293 cells transfected with Flag-SIRT6 immunoprecipitated with an antibody to the endogenous partner (anti-RelA/p65, anti-SMARCA5, anti-PIAS1, anti-MYBBP1A) on Protein G agarose; washes incl. 0.5 M NaCl; Western blot with anti-SIRT6 or anti-Flag. (A western blot detects proteins with antibodies after separation by electrophoresis.)

Assay [2] addresses T1, MYB-binding protein 1A (MYBBP1A) (human (endogenous in HEK293)) (UniProt Q9BQG0).
T1 sequence: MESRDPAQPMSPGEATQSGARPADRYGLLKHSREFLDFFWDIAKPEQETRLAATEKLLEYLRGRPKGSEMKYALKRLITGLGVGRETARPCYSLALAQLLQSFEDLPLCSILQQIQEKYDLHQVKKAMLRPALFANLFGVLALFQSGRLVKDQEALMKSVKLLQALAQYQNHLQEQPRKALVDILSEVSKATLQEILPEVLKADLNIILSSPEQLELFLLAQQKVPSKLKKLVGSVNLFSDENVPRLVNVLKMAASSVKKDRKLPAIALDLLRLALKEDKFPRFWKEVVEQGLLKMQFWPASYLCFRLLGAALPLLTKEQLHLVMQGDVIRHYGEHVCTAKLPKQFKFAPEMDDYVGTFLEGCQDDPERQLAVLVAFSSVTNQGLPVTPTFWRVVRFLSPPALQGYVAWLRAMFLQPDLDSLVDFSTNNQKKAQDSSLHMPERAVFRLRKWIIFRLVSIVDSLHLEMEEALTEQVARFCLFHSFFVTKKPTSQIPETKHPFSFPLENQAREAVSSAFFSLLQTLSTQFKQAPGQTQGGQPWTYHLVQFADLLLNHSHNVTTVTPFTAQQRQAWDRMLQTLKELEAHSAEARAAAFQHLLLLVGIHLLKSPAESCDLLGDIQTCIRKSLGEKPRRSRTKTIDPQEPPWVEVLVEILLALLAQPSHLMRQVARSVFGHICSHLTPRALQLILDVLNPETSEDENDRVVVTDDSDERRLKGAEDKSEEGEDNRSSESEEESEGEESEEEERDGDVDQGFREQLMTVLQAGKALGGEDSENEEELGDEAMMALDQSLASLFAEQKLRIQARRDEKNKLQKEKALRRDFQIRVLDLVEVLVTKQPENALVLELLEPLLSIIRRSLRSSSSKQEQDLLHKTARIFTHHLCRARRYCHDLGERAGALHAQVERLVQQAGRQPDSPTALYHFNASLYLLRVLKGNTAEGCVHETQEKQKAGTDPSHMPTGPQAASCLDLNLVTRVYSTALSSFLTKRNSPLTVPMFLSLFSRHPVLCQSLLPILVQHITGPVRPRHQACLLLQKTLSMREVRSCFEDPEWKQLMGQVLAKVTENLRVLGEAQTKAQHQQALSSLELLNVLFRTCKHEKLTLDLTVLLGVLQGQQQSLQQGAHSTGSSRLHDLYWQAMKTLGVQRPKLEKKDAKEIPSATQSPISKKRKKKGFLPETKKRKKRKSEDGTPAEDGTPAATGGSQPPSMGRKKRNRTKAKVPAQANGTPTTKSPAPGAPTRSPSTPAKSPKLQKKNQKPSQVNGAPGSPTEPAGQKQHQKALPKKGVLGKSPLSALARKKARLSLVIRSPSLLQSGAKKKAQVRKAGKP
Described as above.

Assay [3] addresses RelA/p65 (human (endogenous in HEK293)) (UniProt Q04206). The assay is described as above.
Assay [4] deals with PIAS1 (human (endogenous in HEK293)) (UniProt O75925). Described as above.
For assay [5], the target named is Flag-tagged H133W mutant of SIRT6 (human) (UniProt Q8N6T7). Put plainly: co-IP; extract of HEK293 cells transfected with Flag-SIRT6 (wild type or H133W) immunoprecipitated with anti-Flag agarose, 1 hour at room temperature; washes incl. 0.5 M NaCl; eluted with Flag peptide or SDS sample buffer; Western blot for the endogenous partner.
The target of assay [6] is Flag-tagged wild type SIRT6 (human) (UniProt Q8N6T7). The assay is described as above.
Assay [7] deals with LexA-SIRT6 full length wild type bait (N-LexA-SIRT6-C, pB27) (human) (UniProt Q8N6T7). Nature of the assay: two-hybrid; library screen, LexA-SIRT6 bait (pB27) against a random-primed human leukocyte and activated mononuclear cell cDNA library in pP6; mating of Y187 and L40ΔGal4; selection on medium lacking tryptophan, leucine and histidine.
Assay [8] addresses Gal4 DNA-binding domain-SIRT6 full length bait (N-Gal4-SIRT6-C, pB35) (human) (UniProt Q8N6T7). Nature of the assay: two-hybrid; library screen, Gal4 DNA-binding domain-SIRT6 bait (pB35) against the same library; mating of Y187 and CG1945; selection on medium lacking tryptophan, leucine, histidine and methionine.
Assay [9] addresses LexA-SIRT6 full length wild type bait (N-LexA-SIRT6-C, pB27) (human) (UniProt Q8N6T7). Put plainly: two-hybrid; one-by-one assays, re-cloned prey fragments against LexA-SIRT6 wild type or H133W (pB27); growth of diluted diploid yeast on medium lacking tryptophan, leucine and histidine; sensitivity to 3-Aminotriazole (data not shown).
Assay [10] has as its target LexA-SIRT6 H133W mutant bait (pB27) (human) (UniProt Q8N6T7). The description is as above.

Consider “Flag-tagged H133W mutant of SIRT6 (from UniProt Q8N6T7 1-355) (enzyme)”, for which, in assay [1], the binding entry was “binds”.
Consider “Flag-tagged wild type SIRT6 (from UniProt Q8N6T7 1-355) (enzyme)”, for which the binding result in assay [2], in assay [3], in assay [4] and in assay [1] was “binds” each time.
As to PIAS1 (from UniProt O75925 1-651), the binding result in assay [5] and in assay [6] was “binds” in each case.
For the molecule RelA/p65 (from UniProt Q04206 1-551), the binding entry in [5] and in [6] was “binds” throughout.
With SMARCA5 (from UniProt O60264 1-1052), the binding result in assay [6] was “binds”.
Turning to “protein inhibitor of activated STAT1 (PIAS1) residues 303-507, two-hybrid prey (from UniProt O75925 303-507) (domain or fragment)”, the binding entry in assay [7], in assay [8], in assay [9] and in assay [10] was “binds” each time.
In the case of “thymine DNA glycosylase (TDG) residues 101-410, two-hybrid prey (from UniProt Q13569 101-410) (domain or fragment)”, the binding entry in assay [7], in assay [8], in assay [9] and in assay [10] was “binds” each time.

B1: MYB-binding protein 1A (MYBBP1A) (protein, UniProt Q9BQG0 1-1328)
chain: T1 sequence
Take B1: the binding result in [6] is “binds”.

For the origin of these results see publication PMC3519869.
